Data taken from paper PMC11163988, “Cloning, expression, and purification of an α-carbonic anhydrase from Toxoplasma gondii to unveil its kinetic parameters and anion inhibition profile” (Journal of Enzyme Inhibition and Medicinal Chemistry, 2024).

By UniProt entry, the sequences of proteins in these tests, tags left out. Residues count along the entry.
UniProt S8F479, 486-829 limits assumed: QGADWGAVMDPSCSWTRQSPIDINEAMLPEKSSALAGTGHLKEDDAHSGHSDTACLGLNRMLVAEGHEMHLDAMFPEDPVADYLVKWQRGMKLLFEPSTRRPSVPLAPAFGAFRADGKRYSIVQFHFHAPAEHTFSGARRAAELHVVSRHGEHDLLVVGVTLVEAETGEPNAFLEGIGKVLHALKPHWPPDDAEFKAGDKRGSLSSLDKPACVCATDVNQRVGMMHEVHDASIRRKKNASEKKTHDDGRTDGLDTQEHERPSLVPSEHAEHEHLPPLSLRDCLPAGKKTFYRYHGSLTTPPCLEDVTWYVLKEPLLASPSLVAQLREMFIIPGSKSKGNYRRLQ

Target: Tg_CA (Toxoplasma gondii α-CA) (Toxoplasma gondii, UniProt S8F479)
Experiment: biochemical

SMILES: CC(=O)Nc1nnc(S(N)(=O)=O)s1 [acetazolamide, 5-acetamido-1,3,4-thiadiazole-2-sulphonamide]
- Ki: 45.7 nM
